Results as given in patent publication US20230079819A1, “COMPOUNDS AND USES THEREOF” (Foghorn Therapeutics Inc., priority 2019, published 2023).
The structures given here were assigned with low confidence; some may be wrong.

Amino acid sequences for entries named in this document (tags omitted).
UniProt P51532, whole entry: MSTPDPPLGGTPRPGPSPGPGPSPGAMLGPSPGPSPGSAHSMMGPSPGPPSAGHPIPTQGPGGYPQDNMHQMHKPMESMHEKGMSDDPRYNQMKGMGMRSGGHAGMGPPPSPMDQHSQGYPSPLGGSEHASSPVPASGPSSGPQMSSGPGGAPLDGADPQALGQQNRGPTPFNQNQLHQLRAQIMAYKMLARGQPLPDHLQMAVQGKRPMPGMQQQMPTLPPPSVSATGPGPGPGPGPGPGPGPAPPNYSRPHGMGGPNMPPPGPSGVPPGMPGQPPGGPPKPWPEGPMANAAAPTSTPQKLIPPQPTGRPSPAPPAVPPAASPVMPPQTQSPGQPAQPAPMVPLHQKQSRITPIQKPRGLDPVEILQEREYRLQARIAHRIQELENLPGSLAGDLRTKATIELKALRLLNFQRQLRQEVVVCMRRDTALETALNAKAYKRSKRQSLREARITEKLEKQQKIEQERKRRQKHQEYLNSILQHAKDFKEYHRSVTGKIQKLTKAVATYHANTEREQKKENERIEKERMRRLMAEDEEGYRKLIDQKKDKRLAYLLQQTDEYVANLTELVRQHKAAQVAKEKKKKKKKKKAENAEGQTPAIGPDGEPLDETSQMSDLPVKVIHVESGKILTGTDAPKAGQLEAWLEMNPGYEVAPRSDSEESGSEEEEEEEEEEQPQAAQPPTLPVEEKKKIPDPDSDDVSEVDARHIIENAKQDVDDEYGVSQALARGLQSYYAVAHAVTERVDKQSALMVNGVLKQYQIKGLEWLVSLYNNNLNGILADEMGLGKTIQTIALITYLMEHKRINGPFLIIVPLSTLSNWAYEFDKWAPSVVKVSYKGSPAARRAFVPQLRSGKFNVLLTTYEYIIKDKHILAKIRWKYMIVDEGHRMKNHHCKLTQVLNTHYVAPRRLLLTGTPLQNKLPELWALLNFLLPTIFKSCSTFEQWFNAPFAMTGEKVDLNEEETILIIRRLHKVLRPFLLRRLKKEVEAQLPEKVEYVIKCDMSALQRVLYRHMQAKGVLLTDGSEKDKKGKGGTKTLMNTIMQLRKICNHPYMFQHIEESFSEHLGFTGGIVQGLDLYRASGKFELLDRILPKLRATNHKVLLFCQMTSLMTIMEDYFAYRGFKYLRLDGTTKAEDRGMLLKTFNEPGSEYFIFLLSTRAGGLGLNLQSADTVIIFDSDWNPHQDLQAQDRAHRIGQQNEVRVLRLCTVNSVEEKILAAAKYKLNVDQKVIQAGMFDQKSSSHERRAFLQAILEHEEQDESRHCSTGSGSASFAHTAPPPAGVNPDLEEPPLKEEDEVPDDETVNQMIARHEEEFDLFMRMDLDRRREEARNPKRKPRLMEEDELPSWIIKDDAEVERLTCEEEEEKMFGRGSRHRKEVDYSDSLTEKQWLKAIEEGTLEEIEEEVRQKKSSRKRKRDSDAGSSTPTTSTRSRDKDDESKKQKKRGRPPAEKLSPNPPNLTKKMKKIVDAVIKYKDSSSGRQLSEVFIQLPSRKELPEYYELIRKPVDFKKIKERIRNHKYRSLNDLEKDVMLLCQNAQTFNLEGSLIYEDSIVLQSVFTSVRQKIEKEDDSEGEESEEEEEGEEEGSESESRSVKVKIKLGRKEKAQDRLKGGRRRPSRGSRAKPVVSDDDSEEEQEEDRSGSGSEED
UniProt P51531, whole entry: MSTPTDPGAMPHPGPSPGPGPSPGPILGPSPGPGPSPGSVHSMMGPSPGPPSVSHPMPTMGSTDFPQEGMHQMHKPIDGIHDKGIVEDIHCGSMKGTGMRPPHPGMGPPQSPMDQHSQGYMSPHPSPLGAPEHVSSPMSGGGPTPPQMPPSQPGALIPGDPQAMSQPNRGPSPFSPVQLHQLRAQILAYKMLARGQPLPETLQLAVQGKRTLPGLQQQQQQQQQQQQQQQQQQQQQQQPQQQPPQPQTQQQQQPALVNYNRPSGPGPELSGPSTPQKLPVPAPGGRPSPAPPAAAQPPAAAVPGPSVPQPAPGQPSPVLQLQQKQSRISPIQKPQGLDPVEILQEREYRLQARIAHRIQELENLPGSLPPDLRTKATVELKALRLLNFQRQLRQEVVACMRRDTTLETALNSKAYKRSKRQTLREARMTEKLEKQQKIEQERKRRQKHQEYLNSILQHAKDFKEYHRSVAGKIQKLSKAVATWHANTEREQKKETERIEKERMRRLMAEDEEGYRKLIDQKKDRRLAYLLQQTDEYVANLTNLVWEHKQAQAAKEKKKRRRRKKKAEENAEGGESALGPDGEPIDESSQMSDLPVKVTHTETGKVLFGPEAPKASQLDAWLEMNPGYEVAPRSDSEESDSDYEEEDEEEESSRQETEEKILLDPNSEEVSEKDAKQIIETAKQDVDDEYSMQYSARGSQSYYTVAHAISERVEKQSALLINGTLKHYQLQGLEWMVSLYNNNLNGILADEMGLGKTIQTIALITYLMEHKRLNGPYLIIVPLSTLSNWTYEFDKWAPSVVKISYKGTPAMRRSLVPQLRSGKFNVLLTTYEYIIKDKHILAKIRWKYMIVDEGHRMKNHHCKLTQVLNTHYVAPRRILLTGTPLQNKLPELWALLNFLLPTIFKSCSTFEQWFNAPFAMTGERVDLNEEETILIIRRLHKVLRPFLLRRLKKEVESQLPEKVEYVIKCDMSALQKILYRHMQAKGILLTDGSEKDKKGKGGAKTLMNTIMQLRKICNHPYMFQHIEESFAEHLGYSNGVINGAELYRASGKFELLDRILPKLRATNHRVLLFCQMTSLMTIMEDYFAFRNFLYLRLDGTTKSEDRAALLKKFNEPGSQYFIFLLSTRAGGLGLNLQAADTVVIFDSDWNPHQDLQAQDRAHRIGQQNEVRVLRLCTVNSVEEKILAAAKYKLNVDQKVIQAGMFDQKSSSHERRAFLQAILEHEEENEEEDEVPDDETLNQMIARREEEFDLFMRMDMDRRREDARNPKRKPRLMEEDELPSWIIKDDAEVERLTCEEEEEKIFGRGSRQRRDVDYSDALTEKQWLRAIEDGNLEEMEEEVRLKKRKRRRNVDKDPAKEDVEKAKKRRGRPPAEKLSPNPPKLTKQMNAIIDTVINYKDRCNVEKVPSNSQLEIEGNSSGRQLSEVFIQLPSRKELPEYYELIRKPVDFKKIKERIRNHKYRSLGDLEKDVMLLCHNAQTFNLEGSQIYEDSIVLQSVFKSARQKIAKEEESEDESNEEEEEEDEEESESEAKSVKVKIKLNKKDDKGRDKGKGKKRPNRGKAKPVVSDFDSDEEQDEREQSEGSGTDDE

Legend:
[1] = biological target: BRG-1 (Homo sapiens, UniProt P51532); assay: ATPase catalytic activity of BRG-1, ADP-Glo in vitro biochemical assay; conditions: read-out: BRG1 IP50 (μM)*, 30 nM BRG-1, 400 μM ATP
[2] = biological target: BRM (Homo sapiens, UniProt P51531); assay: ATPase catalytic activity of BRM, ADP-Glo in vitro biochemical assay; conditions: read-out: BRM IP50 (μM)*, 30 nM BRM, 400 μM ATP

Question: Which IC50 [1] does the source give for `CC(C)(C)n1ccc(C(=O)NCC(=O)Nc2nc(-c3cccc(N4CCC(O)CC4)n3)cs2)c1` [Compound 314] here?
Answer: > 0.01 µM

Question: What about the IC50 [2] of the same compound?
Answer: > 0.01 µM
